{"source": "paper PMC12995475", "binders": {"B1": {"name": "hemagglutinin(HA)-tagged MCM6 (protein, UniProt Q14566 1-821)", "chain": "MDLAAAAEPGAGSQHLEVRDEVAEKCQKLFLDFLEEFQSSDGEIKYLQLAEELIRPERNTLVVSFVDLEQFNQQLSTTIQEEFYRVYPYLCRALKTFVKDRKEIPLAKDFYVAFQDLPTRHKIRELTSSRIGLLTRISGQVVRTHPVHPELVSGTFLCLDCQTVIRDVEQQFKYTQPNICRNPVCANRRRFLLDTNKSRFVDFQKVRIQETQAELPRGSIPRSLEVILRAEAVESAQAGDKCDFTGTLIVVPDVSKLSTPGARAETNSRVSGVDGYETEGIRGLRALGVRDLSYRLVFLACCVAPTNPRFGGKELRDEEQTAESIKNQMTVKEWEKVFEMSQDKNLYHNLCTSLFPTIHGNDEVKRGVLLMLFGGVPKTTGEGTSLRGDINVCIVGDPSTAKSQFLKHVEEFSPRAVYTSGKASSAAGLTAAVVRDEESHEFVIEAGALMLADNGVCCIDEFDKMDVRDQVAIHEAMEQQTISITKAGVKATLNARTSILAAANPISGHYDRSKSLKQNINLSAPIMSRFDLFFILVDECNEVTDYAIARRIVDLHSRIEESIDRVYSLDDIRRYLLFARQFKPKISKESEDFIVEQYKHLRQRDGSGVTKSSWRITVRQLESMIRLSEAMARMHCCDEVQPKHVKEAFRLLNKSIIRVETPDVNLDQEEEIQMEVDEGAGGINGHADSPAPVNGINGYNEDINQESAPKASLRLGFSEYCRISNLIVLHLRKVEEEEDESALKRSELVNWYLKEIESEIDSEEELINKKRIIEKVIHRLTHYDHVLIELTQAGLKGSTEGSESYEEDPYLVVNPNYLLED"}}, "target": "T1, Biotin-histidine(His)-tagged R1 (UniProt P23921)", "T1 sequence (chain, biotin)": "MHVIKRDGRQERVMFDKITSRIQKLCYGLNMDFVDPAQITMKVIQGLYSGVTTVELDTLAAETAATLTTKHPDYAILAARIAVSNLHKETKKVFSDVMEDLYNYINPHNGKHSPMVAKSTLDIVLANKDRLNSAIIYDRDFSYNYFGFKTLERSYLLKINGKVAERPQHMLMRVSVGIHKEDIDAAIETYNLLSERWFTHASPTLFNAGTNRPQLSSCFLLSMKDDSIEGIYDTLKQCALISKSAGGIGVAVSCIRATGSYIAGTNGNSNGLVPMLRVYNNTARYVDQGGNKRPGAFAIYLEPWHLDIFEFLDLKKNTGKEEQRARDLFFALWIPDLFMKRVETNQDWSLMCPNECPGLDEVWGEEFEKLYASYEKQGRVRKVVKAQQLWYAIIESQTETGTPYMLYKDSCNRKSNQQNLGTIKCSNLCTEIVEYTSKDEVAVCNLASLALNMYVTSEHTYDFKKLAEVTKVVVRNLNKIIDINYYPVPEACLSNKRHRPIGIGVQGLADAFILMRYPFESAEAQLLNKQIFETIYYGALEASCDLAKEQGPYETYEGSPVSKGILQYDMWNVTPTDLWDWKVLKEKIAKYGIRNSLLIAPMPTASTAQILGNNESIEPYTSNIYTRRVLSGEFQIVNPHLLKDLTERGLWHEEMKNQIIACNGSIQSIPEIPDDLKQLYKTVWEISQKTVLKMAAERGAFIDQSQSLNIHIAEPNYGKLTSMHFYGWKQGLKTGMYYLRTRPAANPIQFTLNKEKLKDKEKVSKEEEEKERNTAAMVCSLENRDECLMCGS", "test": "pull-down; in vitro binding assay: purified biotin-His-tagged R1 bound to streptavidin beads, HA-tagged MCM from an in vitro transcription/translation reaction; only the target purified", "note": "Results are given in words; binding and its absence hold for the method and conditions named. Binding seen in cells or lysates may run through a third protein. Sequences can lack the tags named with a protein."}
{"binder": "B1", "values": [{"measurement": "binding", "value": "no binding"}]}
